Results deposited as PubChem BioAssay AID743454 (Peter MacCallum Cancer Centre, 2014).
Test: 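Genes whose loss kills vorinostat-resistant colon cancer cells under vorinostat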 (primary screen). System: human HCT116-VR colon cancer cells, selected for vorinostat resistance. Reagent: siRNA pool against human genes, 40 nM siRNA pool. Timing: vorinostat for 24 h, read-out about 72 h after transfection. Challenge: vorinostat at 2.5 µM final. Read-out: 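Cell viability by CellTiter-Fluor and caspase 3/7 activity by luminescence, each scaled to mock wells per plate, duplicates averaged, then robust z-scored over all plates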. Reading the numbers: viability robust z-score: higher = more viable cells than screen typical; caspase robust z-score: higher = more caspase 3/7 activity than screen typical. Rule for the call: 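Hits are knock-downs in viability class RV1/RV2 or caspase class CA1/CA2, excluding ones that killed cells in the no-drug cell-count arm; hits then retested with single siRNAs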.
In all, the deposit lists about 18,000 reagents; below is a random part of them. Of all reagents, 450 (2.5%) got an active call. 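Single biological run; no consistent viability z cut-off exists, so the class columns, not z-scores, define the calls.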

no.	gene	viability hit class	caspase hit class	viability robust z-score	caspase robust z-score	call
1	AMY1B	no change	no change	0.86	-0.7	inactive
2	NEB	no change	no change	0.76	-0.4	inactive
3	RIPOR3	no change	no change	0.78	-0.96	inactive
4	GPX5	no change	no change	1.12	-0.48	inactive
5	LPL	no change	no change	-0.81	-0.43	inactive
6	OR7D2	no change	no change	0.66	0.01	inactive
7	DYNLT3	no change	no change	-0.18	-0.82	inactive
8	MKRN2	no change	no change	-1.33	0.96	inactive
9	MRPS16	no change	no change	0.04	0.25	inactive
10	B3GALT4	no change	no change	-1.31	-0.92	inactive
11	IPO5	no change	no change	1.3	-0.48	inactive
12	HNMT	no change	no change	-0.55	1.38	inactive
13	OCIAD2	no change	no change	0.14	-0.84	inactive
14	LRRC15	no change	no change	0.48	3.82	inactive
15	ZNF571	no change	no change	0.4	0.71	inactive
16	OR5D13	no change	no change	-0.77	1.54	inactive
17	UBE2Q1	no change	CA1 (caspase activation)	-0.64	6.09	active
18	DENND2C	no change	no change	0.7	-0.42	inactive
19	NR1D1	no change	no change	0.15	-0.66	inactive
20	FABP2	no change	no change	-0.23	2.9	inactive
21	MFAP5	no change	no change	-0.9	1.56	inactive
22	RNF31	no change	no change	1.37	0.04	inactive
23	DMRT1	no change	no change	-1.09	0.15	inactive
24	LRRC57	no change	no change	-0.28	1.67	inactive
25	SV2C	no change	no change	0.8	0.11	inactive
26	ARL3	no change	no change	0.74	0.16	inactive
27	EPHA3	no change	no change	-0.44	-1.05	inactive
28	SENP3	no change	no change	1.38	1.74	inactive
29	CMSS1	no change	no change	-0.48	0.03	inactive
30	UBE2T	no change	no change	-1.64	0.37	inactive
31	AKAP7	no change	no change	-1.9	-0.57	inactive
32	SLC1A4	no change	no change	0.36	-0.8	inactive
33	LY6H	no change	no change	0.74	0.58	inactive
34	HSFY1	no change	no change	0.45	-0.85	inactive
35	MIOS	no change	no change	1.61	0.24	inactive
36	ABCD4	no change	no change	-0.55	0.19	inactive
37	DNAH9	no change	no change	-0.55	2.18	inactive
38	LINC00207	no change	no change	-1.28	-0.72	inactive
39	C10orf53	no change	no change	0.04	-0.75	inactive

Looked up above.
For “call”, HNMT reads inactive
For “caspase hit class”, FABP2 has no change
OR5D13, caspase robust z-score = 1.54
GPX5, caspase robust z-score: -0.48
DNAH9, viability robust z-score = -0.55
